We go through four molecules from publication PMC11885570.

Chains of the proteins cited; added tags and fusions are not shown.
UniProt O14929: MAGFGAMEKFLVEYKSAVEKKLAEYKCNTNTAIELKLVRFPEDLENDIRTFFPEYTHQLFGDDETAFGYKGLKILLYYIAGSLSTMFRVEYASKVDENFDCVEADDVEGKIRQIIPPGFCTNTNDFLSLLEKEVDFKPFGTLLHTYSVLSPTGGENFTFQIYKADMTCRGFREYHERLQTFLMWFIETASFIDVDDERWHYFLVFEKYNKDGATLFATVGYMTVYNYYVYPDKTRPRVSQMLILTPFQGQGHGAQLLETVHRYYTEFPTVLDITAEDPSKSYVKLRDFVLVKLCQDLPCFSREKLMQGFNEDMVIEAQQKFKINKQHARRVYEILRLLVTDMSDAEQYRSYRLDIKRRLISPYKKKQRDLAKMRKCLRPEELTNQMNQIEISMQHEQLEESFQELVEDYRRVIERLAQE

Where two headings read alike, the source gives them in different places. Results are given in words; binding and its absence hold for the method and conditions named. In cells and extracts the contact can be indirect. Some results given as binding are weak or reduced against the parent protein; the word gives no strength. For some assays here: Tags and fused reporters may be left off the sequences shown.

Test [1] deals with acyl-CoA synthase long-chain family member 4 (ACSL4), endogenous in NPC cells (human (endogenous in NPC cells)) (UniProt O60488). Kind of test: co-IP; endogenous proteins in NPC cell lysate (IP buffer); antibody and magnetic beads overnight at 4 °C, three washes, western blot. For orientation: In western blotting, separated proteins are transferred to a membrane and probed.
For test [2], the target named is Flag-ACSL4 (pcDNA-Flag-ASCL4) (UniProt O60488). Put plainly: co-IP; 293T cells co-transfected with Flag- and His-tagged plasmids; lysate with antibody and magnetic beads overnight at 4 °C, three washes, western blot.
Test [3] has the same target. The description is as above. This is another data set of the same source.
Test [4] concerns the target T1, Flag-ACSL4-K383Q (pcDNA-Flag-ASCL4-K383Q), K383 acetylation mutant (UniProt O60488).
T1 sequence: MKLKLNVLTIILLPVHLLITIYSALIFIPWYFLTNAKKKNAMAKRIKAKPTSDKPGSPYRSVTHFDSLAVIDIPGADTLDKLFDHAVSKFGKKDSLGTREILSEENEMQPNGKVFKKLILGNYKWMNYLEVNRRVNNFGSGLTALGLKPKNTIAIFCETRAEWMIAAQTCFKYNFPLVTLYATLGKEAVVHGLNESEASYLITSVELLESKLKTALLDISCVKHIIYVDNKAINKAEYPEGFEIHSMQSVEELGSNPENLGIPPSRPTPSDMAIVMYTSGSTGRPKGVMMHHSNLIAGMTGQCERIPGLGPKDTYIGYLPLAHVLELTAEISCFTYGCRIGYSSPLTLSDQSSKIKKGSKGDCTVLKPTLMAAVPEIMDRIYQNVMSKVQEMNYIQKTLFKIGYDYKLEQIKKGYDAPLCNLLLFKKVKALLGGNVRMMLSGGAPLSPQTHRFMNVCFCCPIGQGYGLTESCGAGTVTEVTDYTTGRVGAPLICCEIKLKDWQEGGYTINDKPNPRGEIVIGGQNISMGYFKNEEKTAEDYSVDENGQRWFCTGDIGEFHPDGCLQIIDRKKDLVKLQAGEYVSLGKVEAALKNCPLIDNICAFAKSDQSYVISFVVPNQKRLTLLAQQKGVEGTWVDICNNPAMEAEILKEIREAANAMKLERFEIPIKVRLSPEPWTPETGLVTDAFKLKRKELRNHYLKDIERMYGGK
The description is as above.

Test [5] deals with acyl-CoA synthase long-chain family member 4 (ACSL4), endogenous in NPC cells (human (endogenous in NPC cells)) (UniProt O60488). Put plainly: co-IP; endogenous proteins in NPC cell lysate (IP buffer); antibody and magnetic beads overnight at 4 °C, three washes, western blot. The source holds these as a separate data set.

With “histone acetyltransferase 1 (HAT1), endogenous in NPC cells (from UniProt O14929 1-419) (enzyme)”, the binding result in test [1] is on record as “binds”. As to “His-HAT1 (pcDNA-His-HAT1) (from UniProt O14929 1-419) (enzyme)”, the binding entry in test [2] is recorded as “binds”.

B1: His-FBXO10 (pcDNA-His-FBXO10) (protein, UniProt Q9UK96 1-956)
chain: MEAGGLPLELWRMILAYLHLPDLGRCSLVCRAWYELILSLDSTRWRQLCLGCTECRHPNWPNQPDVEPESWREAFKQHYLASKTWTKNALDLESSICFSLFRRRRERRTLSVGPGREFDSLGSALAMASLYDRIVLFPGVYEEQGEIILKVPVEIVGQGKLGEVALLASIDQHCSTTRLCNLVFTPAWFSPIMYKTTSGHVQFDNCNFENGHIQVHGPGTCQVKFCTFKNTHIFLHNVPLCVLENCEFVGSENNSVTVEGHPSADKNWAYKYLLGLIKSSPTFLPTEDSDFLMSLDLESRDQAWSPKTCDIVIEGSQSPTSPASSSPKPGSKAGSQEAEVGSDGERVAQTPDSSDGGLSPSGEDEDEDQLMYRLSYQVQGPRPVLGGSFLGPPLPGASIQLPSCLVLNSLQQELQKDKEAMALANSVQGCLIRKCLFRDGKGGVFVCSHGRAKMEGNIFRNLTYAVRCIHNSKIIMLRNDIYRCRASGIFLRLEGGGLIAGNNIYHNAEAGVDIRKKSNPLILCNQIHHGLRSGIVVLGNGKGIIRNNQIFSNKEAGIYILYHGNPVVSGNHIFKGRAAGIAVNENGKGLITENVIRENQWGGVDIRRGGIPVLRSNLICFGYSDGVVVGDEGKGLIEGNTIYANKGCGVWMMSSSLPHVTSNHVSYNGLYGVAVFSQKDGSSELPRGHRAQENFSEDGDAILWETELEKEDDPLRRPITIALVESNSINHNGASGLYVQSSEALHVITNVIHANGDRGITVAQSSQPTRVANNSISCNRQSGVKVEAQCKVELRGNGIYDNRGHGIITKGDSTIVIENDIIGNRGSGLQLLPRSDTKVIKNRIHSFRAYGIAVRGRAKALVQENIIFQGKTSKTIFQQISNNRECIMQNNKFLVFKKKSDTWRLVNPPARPHLENSLRRPSAAHNGQKVTAMATRITARVEGGYHSNRSVFCTIL
As to B1, the binding entry in test [3] and in test [4] was “binds” in each case.

B2: F-box protein 10 (FBXO10), endogenous in NPC cells (protein, UniProt Q9UK96 1-956)
chain: MEAGGLPLELWRMILAYLHLPDLGRCSLVCRAWYELILSLDSTRWRQLCLGCTECRHPNWPNQPDVEPESWREAFKQHYLASKTWTKNALDLESSICFSLFRRRRERRTLSVGPGREFDSLGSALAMASLYDRIVLFPGVYEEQGEIILKVPVEIVGQGKLGEVALLASIDQHCSTTRLCNLVFTPAWFSPIMYKTTSGHVQFDNCNFENGHIQVHGPGTCQVKFCTFKNTHIFLHNVPLCVLENCEFVGSENNSVTVEGHPSADKNWAYKYLLGLIKSSPTFLPTEDSDFLMSLDLESRDQAWSPKTCDIVIEGSQSPTSPASSSPKPGSKAGSQEAEVGSDGERVAQTPDSSDGGLSPSGEDEDEDQLMYRLSYQVQGPRPVLGGSFLGPPLPGASIQLPSCLVLNSLQQELQKDKEAMALANSVQGCLIRKCLFRDGKGGVFVCSHGRAKMEGNIFRNLTYAVRCIHNSKIIMLRNDIYRCRASGIFLRLEGGGLIAGNNIYHNAEAGVDIRKKSNPLILCNQIHHGLRSGIVVLGNGKGIIRNNQIFSNKEAGIYILYHGNPVVSGNHIFKGRAAGIAVNENGKGLITENVIRENQWGGVDIRRGGIPVLRSNLICFGYSDGVVVGDEGKGLIEGNTIYANKGCGVWMMSSSLPHVTSNHVSYNGLYGVAVFSQKDGSSELPRGHRAQENFSEDGDAILWETELEKEDDPLRRPITIALVESNSINHNGASGLYVQSSEALHVITNVIHANGDRGITVAQSSQPTRVANNSISCNRQSGVKVEAQCKVELRGNGIYDNRGHGIITKGDSTIVIENDIIGNRGSGLQLLPRSDTKVIKNRIHSFRAYGIAVRGRAKALVQENIIFQGKTSKTIFQQISNNRECIMQNNKFLVFKKKSDTWRLVNPPARPHLENSLRRPSAAHNGQKVTAMATRITARVEGGYHSNRSVFCTIL
Regarding B2, the binding result in test [5] is recorded as “binds”.
